According to publication PMC7917936 (International Journal of Molecular Sciences, 2021):
Strings that start with PEPTIDE1 are HELM notation: dots part the residues, brackets hold end groups and non-standard residues.

Experiment: general procedure: solution-phase peptide synthesis; COMU/DIEA
Conditions: conjugation step

Substance: PEPTIDE1{[bGal-AAC-C6].F.F.F.F}$$$$V2.0
- conjugation yield: 66%
